Measured data: PubChem BioAssay AID1259283 (Sanger Institute, 2017)

- Test: 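Kinases needed for HT115 growth and partners for drug synergy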 (primary screen)
- System: HT115 colorectal cancer cells
- Reagents: siRNA pool against human genes
- Challenge: anchor drug given one day after siRNA: BYL719 at 1 µM, cetuximab at 5 µg/ml, trametinib at 10 nM, or DMSO vehicle alone
- Measurement: 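Per-drug synergy scores plus replicate-mean viability relative to non-targeting pool #2 wells, also expressed as a robust z-score based on control wells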
- Reading the numbers: robust z-score, knock-down alone: higher = more viable cells after knock-down; viability, DMSO vs non-targeting control: higher = more viable cells; synergy score with BYL719 and synergy score with cetuximab and synergy score with trametinib: higher = stronger synergy with drug (synthetic lethal)
- Rule for the call: 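Essential gene: robust z-score less than -3 with no drug added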
- Meaning of the calls: active = essential (z below -3, no drug); inactive = no change without drug
The deposit covers 794 reagents; this is a random part of them. 14 of all reagents (1.8%) count as active. 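Calls reflect only viability loss without drug; drug synergy does not enter the call.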 No viability above 1 is reported: the scale is capped. The record does not give: the amount of reagent, the time to read-out.

target gene,"robust z-score, knock-down alone","viability, DMSO vs non-targeting control (fraction of control)",synergy score with BYL719,synergy score with cetuximab,synergy score with trametinib,outcome
FN3KRP (fructosamine 3 kinase related protein),-0.807,0.852,0.0499,0.135,0.249,inactive
MAP2K4 (mitogen-activated protein kinase kinase 4),-0.0533,0.922,-0.0385,0.0558,0.0156,inactive
ZC3H11A (zinc finger CCCH-type containing 11A),0.789,1,0.0213,0.0752,0.017,inactive
CSK (C-terminal Src kinase),0.789,1,-0.0224,-0.0168,-0.109,inactive
AK4 (adenylate kinase 4),0.388,0.963,0.0386,-0.0503,0.0419,inactive
SGK2 (serum/glucocorticoid regulated kinase 2),0.789,1,0.144,0.124,0.143,inactive
WIPF1 (WAS/WASL interacting protein family member 1),-2.49,0.697,0.00999,0.168,0.255,inactive
RUNX1 (RUNX family transcription factor 1),0.712,0.993,0.122,0.156,0.167,inactive
MAST1 (microtubule associated serine/threonine kinase 1),0.789,1,-0.0224,0.103,-0.0318,inactive
GRK7 (G protein-coupled receptor kinase 7),-0.724,0.86,-0.0509,0.0272,0.0976,inactive
"PRKDC (protein kinase, DNA-activated, catalytic subunit)",-0.0445,0.923,0.0845,0.0683,0.0423,inactive
TNNI3K (TNNI3 interacting kinase),0.789,1,0.0153,0.00369,0.0631,inactive
MAPK11 (mitogen-activated protein kinase 11),-0.273,0.902,-0.118,0.0133,0.097,inactive
TAF1L (TATA-box binding protein associated factor 1 like),-0.0606,0.921,-0.0992,-0.00889,-0.0202,inactive
MECOM (MDS1 and EVI1 complex locus),0.789,1,0.133,0.089,0.0609,inactive
PIK3C3 (phosphatidylinositol 3-kinase catalytic subunit type 3),0.694,0.991,0.0771,0.0977,0.168,inactive
CERT1 (ceramide transporter 1),-0.345,0.895,-0.0752,-0.0386,0.155,inactive
PIK3R4 (phosphoinositide-3-kinase regulatory subunit 4),-1.04,0.83,-0.139,-0.0172,0.0587,inactive
GNE,-0.448,0.886,-0.053,-0.0861,-0.00617,inactive
RFK (riboflavin kinase),0.789,1,0.0224,-0.0434,0.0627,inactive
DGKI (diacylglycerol kinase iota),0.593,0.982,0.0848,0.14,0.0445,inactive
RYK (receptor like tyrosine kinase),0.462,0.97,0.273,0.0122,-0.0675,inactive
ALPK2 (alpha kinase 2),0.789,1,0.04,-0.0435,0.0106,inactive
PDXK (pyridoxal kinase),0.789,1,-0.0224,0.0418,-0.107,inactive
PRKAB1 (protein kinase AMP-activated non-catalytic subunit beta 1),-2.03,0.739,-0.19,0.0257,0.144,inactive
DGKD (diacylglycerol kinase delta),-0.672,0.865,0.102,0.0806,0.0495,inactive
AKT1 (AKT serine/threonine kinase 1),-1.16,0.82,-0.0642,-0.0349,0.0982,inactive
RPS6KA2 (ribosomal protein S6 kinase A2),-0.759,0.857,0.0462,-0.00662,0.0889,inactive
PI4K2B (phosphatidylinositol 4-kinase type 2 beta),-0.532,0.878,-0.00409,0.0902,0.0866,inactive
NUAK2 (NUAK family kinase 2),-0.176,0.911,0.0778,0.156,-0.00116,inactive
CKB (creatine kinase B),0.789,1,-0.0224,0.00909,-0.0864,inactive
CDKL5 (cyclin dependent kinase like 5),-0.503,0.881,0.068,0.1,0.131,inactive
GALK1 (galactokinase 1),-3.43,0.61,-0.0406,-0.085,-0.0839,active
CNOT1 (CCR4-NOT transcription complex subunit 1),-3.9,0.567,-0.127,0.0771,0.117,active
NTRK2 (neurotrophic receptor tyrosine kinase 2),-0.221,0.907,0.0209,0.0229,-0.0665,inactive
TCF12 (transcription factor 12),0.789,1,0.098,0.202,0.0809,inactive
"FYN (FYN proto-oncogene, Src family tyrosine kinase)",0.0656,0.933,0.00787,0.0697,0.0479,inactive
ROR1 (ROR family WNT receptor 1),0.735,0.995,0.0333,0.171,0.182,inactive
MARK3 (microtubule affinity regulating kinase 3),0.789,1,0.1,0.0479,0.267,inactive
PNKP (polynucleotide kinase 3'-phosphatase),-0.832,0.85,0.0462,0.053,0.182,inactive
MED12 (mediator complex subunit 12),0.0744,0.934,-0.0676,0.0331,0.025,inactive
RPS6KA1 (ribosomal protein S6 kinase A1),0.789,1,0.0287,0.00571,0.0886,inactive
KDR (kinase insert domain receptor),0.789,1,0.0817,0.123,-0.0413,inactive
"GUCY2F (guanylate cyclase 2F, retinal)",0.397,0.964,-0.0412,0.00013,0.0926,inactive
ALDH18A1 (aldehyde dehydrogenase 18 family member A1),-0.877,0.846,-0.0737,-0.0484,-0.0968,inactive
CDC73 (cell division cycle 73),-0.698,0.863,-0.017,0.0368,-0.0879,inactive
CASP8 (caspase 8),0.789,1,-0.0224,-0.0435,-0.0982,inactive
MAP4K2 (mitogen-activated protein kinase kinase kinase kinase 2),-0.375,0.892,0.0947,-0.0168,0.0436,inactive
PAK5 (p21 (RAC1) activated kinase 5),-0.555,0.876,-0.0833,0.000666,0.0979,inactive
ZAP70 (zeta chain of T cell receptor associated protein kinase 70),0.658,0.988,0.115,0.0958,0.196,inactive

Entries listed so far whose target name starts with N or n (2):
target gene,"robust z-score, knock-down alone","viability, DMSO vs non-targeting control (fraction of control)",synergy score with BYL719,synergy score with cetuximab,synergy score with trametinib,outcome
NUAK2 (NUAK family kinase 2),-0.176,0.911,0.0778,0.156,-0.00116,inactive
NTRK2 (neurotrophic receptor tyrosine kinase 2),-0.221,0.907,0.0209,0.0229,-0.0665,inactive
